In PMC6857044:
No constants are given. Whether binding was seen depends on the method and setting. In cells and extracts the contact can be indirect. Some entries that bind do so weakly or less than the wild type.

The chains behind the UniProt entries cited, without tags or fusion partners.
UniProt Q15796: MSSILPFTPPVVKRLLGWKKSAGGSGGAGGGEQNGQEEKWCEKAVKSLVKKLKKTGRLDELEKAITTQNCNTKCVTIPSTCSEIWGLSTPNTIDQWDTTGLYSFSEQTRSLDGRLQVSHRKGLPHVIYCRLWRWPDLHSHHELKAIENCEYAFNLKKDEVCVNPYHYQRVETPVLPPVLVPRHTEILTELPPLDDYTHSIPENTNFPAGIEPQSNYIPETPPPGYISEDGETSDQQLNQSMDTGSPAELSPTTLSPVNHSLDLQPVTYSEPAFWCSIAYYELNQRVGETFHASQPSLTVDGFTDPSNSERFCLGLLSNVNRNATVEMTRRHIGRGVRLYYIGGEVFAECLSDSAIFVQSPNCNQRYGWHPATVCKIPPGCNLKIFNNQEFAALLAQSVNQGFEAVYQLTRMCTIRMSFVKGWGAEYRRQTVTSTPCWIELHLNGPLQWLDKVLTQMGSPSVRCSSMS

Biological target: p53 (human (endogenous in HK2)) (UniProt P04637)
Experiment: co-IP; HK2 cells lysed in 1% NP-40; p53 antibody 2 h at 4 °C, captured on Protein A agarose beads, washed three times with 1% NP-40; Western blot with Smad2 antibody

Substance: Smad2 (from UniProt Q15796 1-467)
- binding: binds
